Patent US20240383950A1, “RECOMBINANT GLYCAN BINDING PROTEINS AND ITS USE” (UNICHEM LABORATORIES LIMITED, priority 2021, published 2024)
Read-outs that look alike come from different tables or passages of the source.

B1: SEQ ID NO. 2: recombinant glycan binding protein, variant of Sclerotium Rolfsii Lectin, disclosed in Indian Patent Application 350/MUM/2009 (protein)
chain: TYKITVRVYQTNPDAFFHPVEKTVWKYANGGTWTITDDQHVLTMGGSGTSGTLRFHADNGESFTATFGVHNYKRWCDIVTNLAADETGMVINQQYYSQKNREEARERQLSNYQVKNAKGRNFQIVYTEAEGNDLHANLIIG
B2: SEQ ID NO. 3: SEQ ID NO. 2 re-engineered: Serine at 1st position, Glycine at 76th position, Cysteine added at carboxy terminal end (protein)
chain: SYKITVRVYQTNPDAFFHPVEKTVWKYANGGTWTITDDQHVLTMGGSGTSGTLRFHADNGESFTATFGVHNYKRWGDIVTNLAADETGMVINQQYYSQKNREEARERQLSNYQVKNAKGRNFQIVYTEAEGNDLHANLIIGC
B3: SEQ ID NO. 4: SEQ ID NO. 2 re-engineered: Serine at 1st, Glycine at 76th, Serine added at 142nd and Cysteine at 143rd position (protein)
chain: SYKITVRVYQTNPDAFFHPVEKTVWKYANGGTWTITDDQHVLTMGGSGTSGTLRFHADNGESFTATFGVHNYKRWGDIVTNLAADETGMVINQQYYSQKNREEARERQLSNYQVKNAKGRNFQIVYTEAEGNDLHANLIIGSC

Experiment: N terminal methionine content by Reverse Phase HPLC

Row | Molecule | N Terminal Methionine (%) | N Terminal Methionine (%) (listed as SEQ ID NO:2)
1 | B1 | 13.18% | more than 13%
2 | B2 | 1.07% | 
3 | B3 | 1.25% | 
